Experiment [1] has as its target T1, GST-tagged full-length Annexin A1 (ANXA1) (UniProt P04083).
T1 sequence: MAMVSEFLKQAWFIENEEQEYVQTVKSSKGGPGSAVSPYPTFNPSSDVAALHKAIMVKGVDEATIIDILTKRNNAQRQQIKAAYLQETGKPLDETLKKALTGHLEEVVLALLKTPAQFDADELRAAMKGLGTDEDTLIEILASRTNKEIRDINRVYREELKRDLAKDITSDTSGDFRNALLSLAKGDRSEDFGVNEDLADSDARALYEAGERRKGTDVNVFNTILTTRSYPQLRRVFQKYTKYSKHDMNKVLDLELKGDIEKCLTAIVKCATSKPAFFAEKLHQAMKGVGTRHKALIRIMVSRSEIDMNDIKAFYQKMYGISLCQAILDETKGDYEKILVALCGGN
As to the kind of experiment: pull-down; GST-tagged ANXA1 as bait, Notch1 from the cell lysate of sgANXA1 and control cell lines, in vitro; only the target purified.

Experiment [2] concerns the target T1, GST-tagged full-length Annexin A1 (ANXA1). As to the kind of experiment: BLI; synthetic peptides of the ankyrin domain of NICD at increasing concentrations with GST-ANXA1; both purified. (In general: Biolayer interferometry detects binding as a change in optical thickness at a sensor tip.)

These are yes or no findings as the source states them, for the method shown. For some assays here: Binding seen in cells or lysates may run through a third protein. Some entries that bind do so weakly or less than the wild type. Where a sequence is shown, tags or fusion partners need not be part of it.

Regarding “Notch1 in the cell lysate (from UniProt P46531 19-2555)”, the binding entry in experiment [1] is given as “binds”.

B1: NICD-5l peptide (peptide)
peptide: KSALHWAAAVNNVDAAVVLLKNGANKDMQNNR
notes: also called NICD-5 linear peptide; source: synthetic peptide (solid phase, Wang resin)
Take B1: the binding result in experiment [2] is reported as “binds”.

Source of the values: paper PMC11672316, “Identification of ANXA1 as a Novel Upstream Negative Regulator of Notch1 Function in AML” (Advanced Science, 2024).
